Reference: patent publication EP2308983B1, “Cytochrome P450 from Rhizopus oryzae and uses thereof” (Univerza v Ljubljani, priority 2009, dated 2011)

Tested on: R. oryzae
Assay: R. oryzae hydroxylation activity assay (mycelium, HPLC and LC/MS)
Type: cell-based
Settings: 300 µM steroid, up to 2 h

Structure (SMILES) | ratio between 11α- and 6β-hydroxylated derivative in the fungus compared to SpoC12 | extent of hydroxylation by the fungus compared to SpoC12
C[C@]12CC[C@H]3[C@@H](CCC4=CC(=O)CC[C@@]43C)[C@@H]1CC[C@@H]2O [testosterone] | much higher as in SpoC12 | –
C[C@]12CC[C@H]3[C@@H](CCC4=CC(=O)CC[C@@]43C)[C@@H]1CC[C@@H]2C(=O)CO [DOC, 11-deoxycorticosterone] | – | much lesser extent than SpoC12
